# Patent publication US5001223A, “Parathyroid hormone antagonists with enhanced metabolic properties” (Merck & Co., Inc., priority 1989, dated 1991)
# For at least one compound, name, drawing or mass did not settle the structure.
# Biological target: T1, parathyroid hormone cell surface receptor (bovine renal cortical plasma membranes) (Bos taurus, UniProt Q1LZF7)
# T1 construct: from tissue; host or cells: bovine renal cortex plasma membranes
# T1 sequence (Q1LZF7 29-589): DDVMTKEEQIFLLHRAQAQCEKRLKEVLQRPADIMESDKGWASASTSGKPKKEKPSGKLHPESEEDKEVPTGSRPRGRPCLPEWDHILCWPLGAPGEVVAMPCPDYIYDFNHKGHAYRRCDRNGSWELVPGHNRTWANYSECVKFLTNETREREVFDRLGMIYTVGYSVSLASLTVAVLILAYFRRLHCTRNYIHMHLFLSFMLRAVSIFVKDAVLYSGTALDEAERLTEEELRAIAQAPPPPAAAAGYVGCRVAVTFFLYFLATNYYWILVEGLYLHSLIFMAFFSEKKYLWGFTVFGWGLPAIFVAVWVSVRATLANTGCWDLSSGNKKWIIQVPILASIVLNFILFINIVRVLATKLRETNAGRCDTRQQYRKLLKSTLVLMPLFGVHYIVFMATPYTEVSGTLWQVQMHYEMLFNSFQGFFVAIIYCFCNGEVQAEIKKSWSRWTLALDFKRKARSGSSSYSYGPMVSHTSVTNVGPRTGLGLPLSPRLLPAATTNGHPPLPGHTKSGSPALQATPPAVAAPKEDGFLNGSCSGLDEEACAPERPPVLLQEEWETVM
# Assay: PTH binding assay (receptor assay, radioligand [Nle^8,18,^125 I-Tyr^34 ]bPTH(1-34)NH2)
# Conditions: radioligand 25,000 cpm, Tris-containing buffer, 30 min. at 21° C.
# Description: PTH analogues were analysed in a new receptor assay which modified the assay reported in Rosenblatt et al., Endocrin. 107: 545-550 (1980). The binding assay used [Nle^8,18,^125 I-Tyr^34 ]bPTH(1-34)NH2which was purified by HPLC (Novapak C18, 32-35% CH3 CN in 0.1% TFA) and was stored as aliquots in 25 mM TrisHCl/1% BSA at -70° C. Bovine renal cortical plasma membranes were incubated with radioligand (25,000 cpm) in a Tris-containing buffer (250 ul) for 30 min. at 21° C. Once equilibrium was reached, bound and free radioligand were separated by centrifugation. High specific binding (85%) to bovine renal cortical membranes was obtained consistently.
compound,measurement,value
CSCC[C@H](NC(=O)CCc1ccccc1)C(=O)N[C@@H](Cc1c[nH]cn1)C(=O)N[C@@H](CC(N)=O)C(=O)N[C@@H](CC(C)C)C(=O)NCC(=O)N[C@@H](CCCCN)C(=O)N[C@@H](Cc1c[nH]cn1)C(=O)N[C@@H](CC(C)C)C(=O)N[C@@H](CO)C(=O)N[C@@H](CO)C(=O)N[C@@H](CCSC)C(=O)N[C@@H](CCC(=O)O)C(=O)N[C@@H](CCCNC(=N)N)C(=O)N[C@H](C(=O)N[C@@H](CCC(=O)O)C(=O)N[C@@H](Cc1c[nH]c2ccccc12)C(=O)N[C@@H](CC(C)C)C(=O)N[C@@H](CCCNC(=N)N)C(=O)N[C@@H](CCCCN)C(=O)N[C@@H](CCCCN)C(=O)N[C@@H](CC(C)C)C(=O)N[C@@H](CCC(N)=O)C(=O)N[C@@H](CC(=O)O)C(=O)N[C@H](C(=O)N[C@@H](Cc1c[nH]cn1)C(=O)N[C@@H](CC(N)=O)C(=O)N[C@@H](Cc1ccc(O)cc1)C(N)=O)C(C)C)C(C)C [[Desamino Tyr^34]bPTH(7-34)NH2],Ki,0.091 ± 0.012 µM
